Values from PubChem BioAssay AID1259405 (NCATS, 2018)

- Aim: 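Mouse-designed siRNAs used to find CHO productivity engineering targets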 (primary screen)
- System: Chinese hamster CHO-K1 ovary cells with stable secreted eGFP expression
- Reagents: single siRNA against mouse genes, 0.8 pmol siRNA per well (2 µl of 400 nM stock)
- Duration: 3 days
- Detection: 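Percent of the per-plate non-targeting control median for intracellular GFP per well by laser scanning cytometry and for cell viability by ATP luminescence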
- Direction: GFP, % of control: higher = more GFP per well, higher productivity; viability (ATP), % of control: higher = more viable cells (more ATP)
- Hit rule: 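a knock-down is called active if GFP reaches 120% or more of non-targeting control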
The whole screen tested about 50,000 reagents; this is a part drawn at random. About 4,000 of all reagents (8%) were called active. 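Mouse siRNA library applied to hamster cells; one well for each siRNA.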 The numbers tell different reagents against one gene apart.

Tnfrsf8 #1 → GFP, % of control: 101; viability (ATP), % of control: 80.1; Call: inactive
Tnfrsf8 #2 → GFP, % of control: 68.7; viability (ATP), % of control: 65.7; Call: inactive
Tnfrsf8 #3 → GFP, % of control: 66.3; viability (ATP), % of control: 60.1; Call: inactive
Camsap3 #1 → GFP, % of control: 115; viability (ATP), % of control: 90.5; Call: inactive
Camsap3 #2 → GFP, % of control: 92.9; viability (ATP), % of control: 73.4; Call: inactive
Camsap3 #3 → GFP, % of control: 108; viability (ATP), % of control: 74.3; Call: inactive
Taar7d #1 → GFP, % of control: 148; viability (ATP), % of control: 69.7; Call: active
Taar7d #2 → GFP, % of control: 81.8; viability (ATP), % of control: 85.5; Call: inactive
Taar7d #3 → GFP, % of control: 108; viability (ATP), % of control: 79.4; Call: inactive
Wars2 #1 → GFP, % of control: 74.5; viability (ATP), % of control: 75.6; Call: inactive
Wars2 #2 → GFP, % of control: 115; viability (ATP), % of control: 99.2; Call: inactive
Det1 #1 → GFP, % of control: 62.3; viability (ATP), % of control: 64.1; Call: inactive
Det1 #2 → GFP, % of control: 59.7; viability (ATP), % of control: 66.3; Call: inactive
Det1 #3 → GFP, % of control: 85.9; viability (ATP), % of control: 77.5; Call: inactive
Twsg1 #1 → GFP, % of control: 51.2; viability (ATP), % of control: 26; Call: inactive
Twsg1 #2 → GFP, % of control: 65.7; viability (ATP), % of control: 53; Call: inactive
Twsg1 #3 → GFP, % of control: 92.2; viability (ATP), % of control: 93.4; Call: inactive
Efnb1 #1 → GFP, % of control: 97.6; viability (ATP), % of control: 81.3; Call: inactive
Efnb1 #2 → GFP, % of control: 87.5; viability (ATP), % of control: 63.5; Call: inactive

In a second layout: entries from further up
| gene | siRNA no. | GFP, % of control | viability (ATP), % of control | Call |
| --- | --- | --- | --- | --- |
| Taar7d | 3 | 108 | 79.4 | inactive |
| Wars2 | 1 | 74.5 | 75.6 | inactive |
| Wars2 | 2 | 115 | 99.2 | inactive |
| Det1 | 1 | 62.3 | 64.1 | inactive |
| Det1 | 2 | 59.7 | 66.3 | inactive |

The list goes on.
Or14j9 #1 → GFP, % of control: 50.2; viability (ATP), % of control: 74.1; Call: inactive
Or14j9 #2 → GFP, % of control: 105; viability (ATP), % of control: 58.6; Call: inactive
Or14j9 #3 → GFP, % of control: 88.3; viability (ATP), % of control: 86; Call: inactive
Arhgap24 #1 → GFP, % of control: 49.3; viability (ATP), % of control: 39.9; Call: inactive
Arhgap24 #2 → GFP, % of control: 73.1; viability (ATP), % of control: 84.1; Call: inactive
Arhgap24 #3 → GFP, % of control: 72.8; viability (ATP), % of control: 48; Call: inactive
Fam117a #1 → GFP, % of control: 68.8; viability (ATP), % of control: 73.5; Call: inactive
Fam117a #2 → GFP, % of control: 92.5; viability (ATP), % of control: 82.1; Call: inactive
Fam117a #3 → GFP, % of control: 132; viability (ATP), % of control: 108; Call: active
Wdr3 #1 → GFP, % of control: 52.6; viability (ATP), % of control: 41.8; Call: inactive
Wdr3 #2 → GFP, % of control: 49.3; viability (ATP), % of control: 47.9; Call: inactive
Wdr3 #3 → GFP, % of control: 45.8; viability (ATP), % of control: 56.3; Call: inactive
Hacd2 #1 → GFP, % of control: 90.6; viability (ATP), % of control: 129; Call: inactive
Hacd2 #2 → GFP, % of control: 86; viability (ATP), % of control: 71.9; Call: inactive
Wbp1 #1 → GFP, % of control: 93.3; viability (ATP), % of control: 76.2; Call: inactive
Wbp1 #2 → GFP, % of control: 54.5; viability (ATP), % of control: 29.1; Call: inactive
Wbp1 #3 → GFP, % of control: 84; viability (ATP), % of control: 102; Call: inactive
Aak1 → GFP, % of control: 48.7; viability (ATP), % of control: 52.2; Call: inactive
Osm #1 → GFP, % of control: 99.9; viability (ATP), % of control: 115; Call: inactive
Osm #2 → GFP, % of control: 57; viability (ATP), % of control: 56.9; Call: inactive
Osm #3 → GFP, % of control: 75.4; viability (ATP), % of control: 75.4; Call: inactive
